{"source": "PubChem BioAssay AID743454 – Peter MacCallum Cancer Centre | 2014", "test": "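Genes whose loss kills vorinostat-resistant colon cancer cells under vorinostat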 (primary screen)", "cell system": "human HCT116-VR colon cancer cells, selected for vorinostat resistance", "reagents": "siRNA pool against human genes, 40 nM siRNA pool", "duration": "vorinostat for 24 h, read-out about 72 h after transfection", "conditions": "vorinostat at 2.5 µM final", "read-out": "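Two measures, CellTiter-Fluor viability and luminescent caspase 3/7 activity, each as fold change against same-plate mock wells, mean of duplicates, then screen-wide robust z-score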", "reading the numbers": "viability robust z-score: higher = more viable cells than screen typical; caspase robust z-score: higher = more caspase 3/7 activity than screen typical", "hit rule": "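a knock-down is a hit when classed RV1 or RV2 for lowered viability, or CA1 or CA2 for caspase activation; those lethal without drug were dropped; hits were retested singly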", "note": "In all, the deposit lists about 18,000 reagents; shown is a random part of them. 450 of them (2.5%) count as active. 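Single biological run; no consistent viability z cut-off exists, so the class columns, not z-scores, define the calls.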 No sequences are given here."}
{"target": "RGS5 (GeneID 8490)", "viability hit class": "no change", "caspase hit class": "no change", "viability robust z-score": 0.79, "caspase robust z-score": 1.9, "Call": "inactive"}
{"target": "IRGC (GeneID 56269)", "viability hit class": "no change", "caspase hit class": "no change", "viability robust z-score": 0.18, "caspase robust z-score": 0.6, "Call": "inactive"}
{"target": "CD93 (GeneID 22918)", "viability hit class": "no change", "caspase hit class": "no change", "viability robust z-score": 0.61, "caspase robust z-score": 0.2, "Call": "inactive"}
{"target": "ZNF521 (GeneID 25925)", "viability hit class": "no change", "caspase hit class": "no change", "viability robust z-score": -0.42, "caspase robust z-score": 0.34, "Call": "inactive"}
{"target": "PDCD6 (GeneID 10016)", "viability hit class": "no change", "caspase hit class": "no change", "viability robust z-score": -0.6, "caspase robust z-score": -0.03, "Call": "inactive"}
{"target": "NPY5R (GeneID 4889)", "viability hit class": "no change", "caspase hit class": "no change", "viability robust z-score": 0.26, "caspase robust z-score": -1.43, "Call": "inactive"}
{"target": "OR5V1 (GeneID 81696)", "viability hit class": "no change", "caspase hit class": "no change", "viability robust z-score": -0.38, "caspase robust z-score": -0.84, "Call": "inactive"}
{"target": "NXN (GeneID 64359)", "viability hit class": "no change", "caspase hit class": "no change", "viability robust z-score": 0.26, "caspase robust z-score": -1.07, "Call": "inactive"}
{"target": "SYNPO2L (GeneID 79933)", "viability hit class": "no change", "caspase hit class": "no change", "viability robust z-score": -0.92, "caspase robust z-score": -1.02, "Call": "inactive"}
{"target": "NLGN4Y (GeneID 22829)", "viability hit class": "no change", "caspase hit class": "no change", "viability robust z-score": -0.15, "caspase robust z-score": -0.58, "Call": "inactive"}
{"target": "GNAZ (GeneID 2781)", "viability hit class": "no change", "caspase hit class": "no change", "viability robust z-score": 0.31, "caspase robust z-score": 1.12, "Call": "inactive"}
{"target": "TRA2B (GeneID 6434)", "viability hit class": "no change", "caspase hit class": "no change", "viability robust z-score": -1.16, "caspase robust z-score": 1.65, "Call": "inactive"}
{"target": "VPS13A (GeneID 23230)", "viability hit class": "no change", "caspase hit class": "no change", "viability robust z-score": 0.97, "caspase robust z-score": 0.52, "Call": "inactive"}
{"target": "ITIH5 (GeneID 80760)", "viability hit class": "no change", "caspase hit class": "no change", "viability robust z-score": 1.41, "caspase robust z-score": -0.66, "Call": "inactive"}
{"target": "HMCN1 (GeneID 83872)", "viability hit class": "no change", "caspase hit class": "no change", "viability robust z-score": 0.16, "caspase robust z-score": -0.34, "Call": "inactive"}
{"target": "KCNH1 (GeneID 3756)", "viability hit class": "no change", "caspase hit class": "no change", "viability robust z-score": -0.9, "caspase robust z-score": -1.19, "Call": "inactive"}
{"target": "PIERCE1 (GeneID 138162)", "viability hit class": "no change", "caspase hit class": "no change", "viability robust z-score": 0.99, "caspase robust z-score": 1.26, "Call": "inactive"}
{"target": "POM121L2 (GeneID 94026)", "viability hit class": "no change", "caspase hit class": "no change", "viability robust z-score": -0.46, "caspase robust z-score": 2.2, "Call": "inactive"}
{"target": "EXTL2 (GeneID 2135)", "viability hit class": "no change", "caspase hit class": "no change", "viability robust z-score": -0.26, "caspase robust z-score": 0.13, "Call": "inactive"}
{"target": "ATP5F1E (GeneID 514)", "viability hit class": "no change", "caspase hit class": "no change", "viability robust z-score": 0.24, "caspase robust z-score": -1.04, "Call": "inactive"}
{"target": "CSNK2A1 (GeneID 1457)", "viability hit class": "no change", "caspase hit class": "no change", "viability robust z-score": 2.12, "caspase robust z-score": -0.28, "Call": "inactive"}
{"target": "NRK (GeneID 203447)", "viability hit class": "no change", "caspase hit class": "no change", "viability robust z-score": 1.42, "caspase robust z-score": 0.4, "Call": "inactive"}
{"target": "GZMK (GeneID 3003)", "viability hit class": "no change", "caspase hit class": "no change", "viability robust z-score": 0.05, "caspase robust z-score": -0.22, "Call": "inactive"}
{"target": "ACCSL (GeneID 390110)", "viability hit class": "no change", "caspase hit class": "no change", "viability robust z-score": -0.04, "caspase robust z-score": 0.91, "Call": "inactive"}
{"target": "ZNF789 (GeneID 285989)", "viability hit class": "no change", "caspase hit class": "no change", "viability robust z-score": -0.55, "caspase robust z-score": 0.41, "Call": "inactive"}
{"target": "TMEM145 (GeneID 284339)", "viability hit class": "no change", "caspase hit class": "no change", "viability robust z-score": 0.02, "caspase robust z-score": 0.58, "Call": "inactive"}
{"target": "S1PR2 (GeneID 9294)", "viability hit class": "no change", "caspase hit class": "no change", "viability robust z-score": -0.68, "caspase robust z-score": 3.28, "Call": "inactive"}

Reformatted: entries from further up.
target,viability hit class,caspase hit class,viability robust z-score,caspase robust z-score,Call
GNAZ (GeneID 2781),no change,no change,0.31,1.12,inactive
TRA2B (GeneID 6434),no change,no change,-1.16,1.65,inactive
VPS13A (GeneID 23230),no change,no change,0.97,0.52,inactive
ITIH5 (GeneID 80760),no change,no change,1.41,-0.66,inactive
